Values from PubChem BioAssay AID1259425 (University of Nebraska Medical Center, 2018).

Assay: 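Seek colon cancer weak points whose silencing resembles KSR1 loss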 (primary screen)
Cells: HCT116 human colon cancer cells
Reagent: siRNA pool against human genes, 50 nM siRNA
Detection: 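After 50 nM siRNA pool, branched-DNA assay measures six marker transcripts per well, minus blank, normalised to the geometric mean of two housekeeping transcripts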
Scale: BNIP3L mRNA: higher = more BNIP3L transcript after knockdown; NDRG1 mRNA: higher = more NDRG1 transcript after knockdown
In all, the deposit lists about 14,000 reagents; below is an unselected part. Further read-outs or replicates are left out here. Not stated in the record: the time to read-out.

With PARP3, what does the deposit list?
BNIP3L mRNA, set 1: 0.059; NDRG1 mRNA, set 1: 0.2

For TRPM3, how do the results read?
BNIP3L mRNA, set 1: 0.126; NDRG1 mRNA, set 1: 0.307

Which result is listed for SLC26A2?
BNIP3L mRNA, set 1: 0.0371; NDRG1 mRNA, set 1: 0.239

Which result is listed for SULT1C4?
BNIP3L mRNA, set 1: 0.151; NDRG1 mRNA, set 1: 0.179

How did the screen score HIPK4?
BNIP3L mRNA, set 1: 0.0948; NDRG1 mRNA, set 1: 0.19

With DNAJC30, how do the results read?
BNIP3L mRNA, set 1: 0.176; NDRG1 mRNA, set 1: 0.345

How did the screen score EPB41L2?
BNIP3L mRNA, set 1: 0.107; NDRG1 mRNA, set 1: 0.0985

Which result is listed for NCAPD3?
BNIP3L mRNA, set 1: 0.132; NDRG1 mRNA, set 1: 0.188

For TUB, what does the deposit list?
BNIP3L mRNA, set 1: 0.0763; NDRG1 mRNA, set 1: 0.0704

With SEMA3G, what was measured?
BNIP3L mRNA, set 1: 0.165; NDRG1 mRNA, set 1: 0.277

For PPRC1, what does the deposit list?
BNIP3L mRNA, set 1: 0.102; NDRG1 mRNA, set 1: 0.569

Which result is listed for ELP6?
BNIP3L mRNA, set 1: 0.104; NDRG1 mRNA, set 1: 0.126

What is on record for PFDN1?
BNIP3L mRNA, set 1: 0.176; NDRG1 mRNA, set 1: 0.13

What is on record for PRPH2?
BNIP3L mRNA, set 1: 0.197; NDRG1 mRNA, set 1: 0.696

What did the screen give for ARG1?
BNIP3L mRNA, set 1: 0.0774; NDRG1 mRNA, set 1: 0.111

Which result is listed for ARID1A?
BNIP3L mRNA, set 1: 0.0762; NDRG1 mRNA, set 1: 0.0856

Which result is listed for SF3B4?
BNIP3L mRNA, set 1: 0.0653; NDRG1 mRNA, set 1: 0.271

What is on record for ZNF490?
BNIP3L mRNA, set 1: 0.106; NDRG1 mRNA, set 1: 0.0831

Part of the list above, set out differently.
gene knocked down | BNIP3L mRNA, set 1 | NDRG1 mRNA, set 1
TUB | 0.0763 | 0.0704
SEMA3G | 0.165 | 0.277
PPRC1 | 0.102 | 0.569

Additional entries:
Which result is listed for TLCD3B?
BNIP3L mRNA, set 1: 0.173; NDRG1 mRNA, set 1: 0.0962

With TMPO, what does the deposit list?
BNIP3L mRNA, set 1: 0.104; NDRG1 mRNA, set 1: 0.363

For MAGEA5P, how do the results read?
BNIP3L mRNA, set 1: 0.13; NDRG1 mRNA, set 1: 0.249

What did the screen give for CST2?
BNIP3L mRNA, set 1: 0.101; NDRG1 mRNA, set 1: 0.257

For AIRE, what does the deposit list?
BNIP3L mRNA, set 1: 0.126; NDRG1 mRNA, set 1: 0.274

With CXCL12, what does the deposit list?
BNIP3L mRNA, set 1: 0.0838; NDRG1 mRNA, set 1: 0.111

Which result is listed for COL25A1?
BNIP3L mRNA, set 1: 0.108; NDRG1 mRNA, set 1: 0.147

For PES1, what was measured?
BNIP3L mRNA, set 1: 0.107; NDRG1 mRNA, set 1: 0.199

How did the screen score DOCK8?
BNIP3L mRNA, set 1: 0.17; NDRG1 mRNA, set 1: 0.504

For RHAG, what does the deposit list?
BNIP3L mRNA, set 1: 0.084; NDRG1 mRNA, set 1: 0.28

How did the screen score RPL27A?
BNIP3L mRNA, set 1: 0.573; NDRG1 mRNA, set 1: 0.301

What is on record for NEIL1?
BNIP3L mRNA, set 1: 0.213; NDRG1 mRNA, set 1: 0.151

For RPL34, what does the deposit list?
BNIP3L mRNA, set 1: 0.27; NDRG1 mRNA, set 1: 0.363

With KCNS3, how do the results read?
BNIP3L mRNA, set 1: 0.0889; NDRG1 mRNA, set 1: 0.295

With CPN1, what does the deposit list?
BNIP3L mRNA, set 1: 0.106; NDRG1 mRNA, set 1: 0.13

For ADCY7, what was measured?
BNIP3L mRNA, set 1: 0.186; NDRG1 mRNA, set 1: 0.414

With GPX7, how do the results read?
BNIP3L mRNA, set 1: 0.331; NDRG1 mRNA, set 1: 0.557

What is on record for C10orf1 (retired record)?
BNIP3L mRNA, set 1: 0.0927; NDRG1 mRNA, set 1: 0.393
